Data source: PubChem BioAssay AID686938 (Drosophila RNAi Screening Center, 2013)

Screen: 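Fly genes required for calcium entry once internal stores are emptied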 (primary screen)
Cells: Drosophila S2R+ cells
Reagent: long dsRNA against Drosophila genes, about 0.25 µg dsRNA per well, roughly 10,000 cells
Duration: 5 days of knock-down before the calcium assay
Conditions: thapsigargin (SERCA pump blocker) to empty calcium stores; entry signal taken 4 min after adding it
Read-out: 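Duplicate raw fluo-4 intensities per well from a plate reader, at rest and four minutes after thapsigargin emptied calcium stores; entry-to-rest ratio filled for only some wells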
Direction: calcium entry signal: higher = stronger calcium signal after store depletion; resting calcium signal: higher = higher resting calcium signal
Units: calcium entry signal in fluorescence units; resting calcium signal in fluorescence units
Hit rule: 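Hit if the duplicate-averaged plate z-score for entry over resting signal is under −3; wells with weak total dye signal (Fmax z < −2) or more than 5 off-targets removed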
Meaning of the calls: active = strongly reduced calcium entry; inactive = no strong reduction
The deposit covers about 23,000 reagents; this is a random part of those that have a named target and a result. In the full data, 75 (0.33%) are marked active. 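Raw plate signals without normalisation; calls rest on plate z-scores that were not deposited; ratio present for only 364 wells.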 Unmarked entries are inactive. The numbers tell different reagents against one gene apart. Not stated in the record: the dose of the treatment.

With Cpsf73, what does the deposit list?
calcium entry signal, replicate 1: 2.13e7; calcium entry signal, replicate 2: 2.13e7; resting calcium signal, replicate 1: 4.78e7; resting calcium signal, replicate 2: 1.11e7

How did the screen score levy?
calcium entry signal, replicate 1: 3.97e7; calcium entry signal, replicate 2: 4.21e7; resting calcium signal, replicate 1: 1.84e7; resting calcium signal, replicate 2: 1.73e7

What did the screen give for CG13438?
calcium entry signal, replicate 1: 2.50e7; calcium entry signal, replicate 2: 3.11e7; resting calcium signal, replicate 1: 1.30e7; resting calcium signal, replicate 2: 1.40e7

For CG7394, what does the deposit list?
calcium entry signal, replicate 1: 3.06e7; calcium entry signal, replicate 2: 3.18e7; resting calcium signal, replicate 1: 1.67e7; resting calcium signal, replicate 2: 1.39e7

With tei, what does the deposit list?
calcium entry signal, replicate 1: 4.63e7; calcium entry signal, replicate 2: 3.46e7; resting calcium signal, replicate 1: 2.29e7; resting calcium signal, replicate 2: 1.76e7

Which result is listed for Duox?
calcium entry signal, replicate 1: 3.69e7; calcium entry signal, replicate 2: 5.16e7; resting calcium signal, replicate 1: 1.83e7; resting calcium signal, replicate 2: 2.20e7

What did the screen give for Sirup?
calcium entry signal, replicate 1: 2.74e7; calcium entry signal, replicate 2: 4.02e7; resting calcium signal, replicate 1: 1.31e7; resting calcium signal, replicate 2: 1.65e7

For Gba1b, what was measured?
calcium entry signal, replicate 1: 3.89e7; calcium entry signal, replicate 2: 3.48e7; resting calcium signal, replicate 1: 2.36e7; resting calcium signal, replicate 2: 1.69e7

Which result is listed for CG15461?
calcium entry signal, replicate 1: 4.78e7; calcium entry signal, replicate 2: 4.70e7; resting calcium signal, replicate 1: 2.15e7; resting calcium signal, replicate 2: 1.87e7

2 entries from above in another layout:
CG13438
- calcium entry signal, replicate 1: 2.50e7
- calcium entry signal, replicate 2: 3.11e7
- resting calcium signal, replicate 1: 1.30e7
- resting calcium signal, replicate 2: 1.40e7

CG7394
- calcium entry signal, replicate 1: 3.06e7
- calcium entry signal, replicate 2: 3.18e7
- resting calcium signal, replicate 1: 1.67e7
- resting calcium signal, replicate 2: 1.39e7

Additional entries:
For CG32461, what was measured?
calcium entry signal, replicate 1: 3.67e7; calcium entry signal, replicate 2: 4.37e7; resting calcium signal, replicate 1: 1.82e7; resting calcium signal, replicate 2: 2.11e7

For CycE #1, what was measured?
calcium entry signal, replicate 1: 3.06e7; resting calcium signal, replicate 1: 1.96e7

With CycE #2, how do the results read?
calcium entry signal, replicate 1: 3.52e7; calcium entry signal, replicate 2: 2.31e7; resting calcium signal, replicate 1: 1.98e7; resting calcium signal, replicate 2: 1.31e7

With obst-J, what was measured?
calcium entry signal, replicate 1: 3.10e7; calcium entry signal, replicate 2: 5.33e7; resting calcium signal, replicate 1: 1.46e7; resting calcium signal, replicate 2: 2.24e7

For myo, how do the results read?
calcium entry signal, replicate 1: 4.64e7; calcium entry signal, replicate 2: 4.66e7; resting calcium signal, replicate 1: 2.02e7; resting calcium signal, replicate 2: 2.12e7

For Cpr65Aw, what was measured?
calcium entry signal, replicate 1: 4.20e7; calcium entry signal, replicate 2: 2.83e7; resting calcium signal, replicate 1: 1.86e7; resting calcium signal, replicate 2: 1.38e7

What is on record for CG4956?
calcium entry signal, replicate 1: 5.01e7; calcium entry signal, replicate 2: 6.89e7; resting calcium signal, replicate 1: 2.29e7; resting calcium signal, replicate 2: 2.82e7

For Tmtc4, what does the deposit list?
calcium entry signal, replicate 1: 3.45e7; calcium entry signal, replicate 2: 4.91e7; resting calcium signal, replicate 1: 1.72e7; resting calcium signal, replicate 2: 5.54e7

Which result is listed for CG13674?
calcium entry signal, replicate 1: 2.66e7; calcium entry signal, replicate 2: 3.39e7; resting calcium signal, replicate 1: 1.50e7; resting calcium signal, replicate 2: 1.50e7

How did the screen score CG5886?
calcium entry signal, replicate 1: 2.38e7; calcium entry signal, replicate 2: 2.77e7; resting calcium signal, replicate 1: 1.18e7; resting calcium signal, replicate 2: 1.34e7

With CG31021, what was measured?
calcium entry signal, replicate 1: 4.13e7; calcium entry signal, replicate 2: 6.06e7; resting calcium signal, replicate 1: 2.01e7; resting calcium signal, replicate 2: 3.11e7

Which result is listed for CG15525?
calcium entry signal, replicate 1: 3.94e7; calcium entry signal, replicate 2: 5.59e7; resting calcium signal, replicate 1: 2.02e7; resting calcium signal, replicate 2: 2.56e7
